The list shows a part of the results. Shown are side measurements of this screen, not its main read-out; they come without a call.
How the values were obtained:
[1] = wild-type E. coli growth inhibition versus h38 humanized strain – h38 mutant RFP, wild-type GFP, cherry-pick, dose response (AID 977622); conditions: E. coli mixed culture, 24 h, total growth OD600 at 50 uM
[2] = test system: E. coli h38 humanized mutant ribosome RFP fluorescence, mixed culture, 24 h; experiment: as above; conditions: h38 mutant RFP at 50 uM

| Structure (SMILES) | activity change [1] [%] | activity change [2] [%] |
| --- | --- | --- |
| Cc1ccc(CNS(=O)(=O)c2ccc3c(c2)NC(=O)CS3)cc1 | -53.4 |  |
| Cc1ccc(S(=O)(=O)Nc2cccc(-c3ccc(N4CCCCCC4)nn3)c2)cc1 | -46.1 | 10.9 |
| O=C(O)CCn1c(SCc2cccc3ccccc23)nc2ccccc21 | -34.2 |  |
| Cc1cc(C(N)=O)nn1-c1c(Cl)cc(Cl)cc1Cl | -16.9 | -17.6 |
| CC1Cc2cc(S(=O)(=O)N3CCN(c4cccc(Cl)c4)CC3)ccc2N1C(=O)C1CC1 (stereo not drawn) | -26.4 | -5.09 |
| O=S(=O)(c1ccccc1)N1C[C@H]2[C@@H](c3ccccc31)[C@@H](CO)N2Cc1ccccc1 | -39.8 | 13.3 |
| O=C(Nc1ccncc1)c1ccc(S(=O)(=O)Nc2ccccc2)cc1 | -42.5 | -36.5 |
| Cc1nn(C)cc1NC(=O)C[C@@H]1CC[C@@H]2[C@@H](COc3ccc(NC(=O)C4CCC4)cc3C(=O)N2C)O1 | 7.51 | 49.1 |
| Cn1nc(C(C)(C)C)c([N+](=O)[O-])c1C(=O)Nc1ccc(Br)cc1 | -49.4 |  |
| CCCc1nc(SCC(=O)N2CCc3ccccc3C2)c2ccccc2n1 | -74.5 | 16.6 |
| O=C(O)CCN(Cc1ccccc1)S(=O)(=O)c1ccccc1Cl | -15.7 | -13.3 |
| O=S(=O)(c1cccs1)N1CCCCN2[C@@H](CO)[C@@H](c3ccc(C4=CCCC4)cc3)[C@@H]2C1 | -76 | -38.7 |
| COc1cc(CC(=O)Nc2nc(C)cs2)cc(OC)c1OC | -1.1 |  |
| CCn1c(-c2cc(-c3ccc(OC(C)C)cc3)nc3ccccc23)n[nH]c1=S |  | 2.44 |
| CN1OC[C@@H]2CN(C(=O)c3ccco3)[C@H](c3ccc(-c4ccc(C#N)cc4)cc3)C[C@@H]21 | -14.5 | -16 |
| Clc1ccc(-c2cn(-c3ccc(Cl)cc3)c3[n+]2CCCCC3)cc1 | -41.8 |  |
| Cc1cccc(-c2ccc([C@@H]3[C@H](CO)N4CCCCN(S(=O)(=O)c5cccc(C)c5)C[C@@H]34)cc2)c1 | -45.1 | -38 |
| O=S(=O)(Nc1ccccc1Cl)c1ccc(-c2ccccn2)s1 | -49.8 | -24.3 |
| O=C(Nc1ccc2c(c1)OCO2)c1cccc(S(=O)(=O)N2CCCC2)c1 | -17 | -8.35 |
| CCN(C(=O)c1ccnc(C(C)(C)C)c1)c1ccccc1 | -33.6 | -0.566 |
| COc1ccc(CNC(=O)CSCc2c(F)cccc2Cl)cc1 | -4.45 | -2.93 |
| CCc1cccc(NC(=O)CCC(=O)N2CCSc3ccccc32)c1 | -59.4 | -2.67 |

| Structure (SMILES) | activity change [1] [%] | activity change [2] [%] |
| --- | --- | --- |
| COc1ccc(Cn2c(-c3ccc(Cl)cc3)c[n+]3ccccc23)cc1 | -23.6 |  |
| CCc1cc2c(=O)n(Cc3ccccc3)c(SC3CCOC3=O)nc2s1 (stereo not drawn) | -45.7 | -40.1 |
| C[C@@H]1CN([C@@H](C)CO)C(=O)c2cc(NC(=O)Nc3cccc4ccccc34)ccc2O[C@@H](C)CCCCO[C@@H]1CN(C)C | -23.3 | 8.77 |
| CC1(Cc2ccccc2C#N)C(=O)Nc2cc(-c3ccccc3Cl)ccc21 (stereo not drawn) | -44.9 | 5.48 |
| Cc1c(C(=O)NCCSCc2cccc(C(F)(F)F)c2)cnn1-c1ccc(F)cc1 | -88.4 |  |
| O=[N+]([O-])c1ccc(NCCNCCOc2nonc2-c2ccccc2)c([N+](=O)[O-])c1 | -3.37 | 0.68 |
| O=C(NCc1ccco1)c1ccc(COc2cccc3ccccc23)cc1 | -15.3 | -11.6 |
| COc1cccc(S(=O)(=O)N2CCCCN3[C@H](CO)[C@H](c4ccc(C#CC(C)C)cc4)[C@@H]3C2)c1 | -23.3 | 33.5 |
| COc1cc2c(cc1[N+](=O)[O-])-c1ccc([N+](=O)[O-])cc1C2 | -32.4 | 42.9 |
| Cc1cc(C(=O)OCC(=O)Nc2cccc(S(N)(=O)=O)c2)c2ccccc2n1 | -21 | -20 |
| CSc1nnnn1-c1ccc(Cl)cc1 | -7.23 | -25.2 |
| O=C(Cc1coc2cc(O)ccc12)N1CCN(S(=O)(=O)c2ccc(Br)cc2)CC1 | -57.5 | -10.5 |
| Cc1noc(C)c1COc1cccc(C(=O)N2CCc3ccccc32)c1 | -24.5 | 4.61 |
| Cc1nn(-c2ccccc2)c(C)c1CN(C)C(=O)c1ccc(S(=O)(=O)NCc2ccco2)cc1 | -56.8 | 0.622 |
| O=C(O)c1cc(S(=O)(=O)N2CCN(C(c3ccccc3)c3ccccc3)CC2)ccc1Cl | -38.3 |  |
| S=c1[nH]nc(-c2ccc(Br)cc2)n1-c1ccc2c(c1)OCCO2 | -75.2 |  |
| CN(Cc1nnc(-c2ccc(F)cc2)o1)c1ccccc1 | -31.2 | 22.5 |
| O=C1c2cccc3cccc(c23)C(=O)N1CCCn1ccnc1 | -45.1 | 3.62 |
| COc1cc(OC)cc(C(=O)Nc2ccc(C(=O)Nc3ccccc3OC)cc2)c1 | -18.7 | -4.87 |
| COCCN(C(=O)c1ccccc1F)c1nnc(-c2ccc(OC)cc2)s1 | -8.78 | -3.65 |
| C=C1SC(Nc2c(C)cc(C)cc2C)=NC12CCCCC2 | -79 | -53.9 |
| COC(=O)c1ccc(OS(=O)(=O)c2ccc(NC(C)=O)cc2)cc1 | -28 |  |

| Structure (SMILES) | activity change [1] [%] | activity change [2] [%] |
| --- | --- | --- |
| CCC(C(=O)NCCc1ccc(C)cc1)n1nc(C)c2c(C)n(-c3ccccc3)nc2c1=O (stereo not drawn) | -4.61 | 4.35 |
| Cc1ccccc1OCc1nc2ccccc2n1C | 1.02 | 23.5 |
| Nc1ccc(C(=O)OCC(=O)N2CCc3ccccc3C2)cc1[N+](=O)[O-] | -48.1 | -32.7 |
| CCN(CC)CCN(C(=O)c1ccc2c(c1)OCCO2)c1nc2cc(C)cc(C)c2s1 | -44.3 | -8.22 |
| O=C(O)c1cc([N+](=O)[O-])ccc1NCc1ccccc1 | -70.4 | 6.33 |
| CN(C)C(CNS(=O)(=O)c1cc([N+](=O)[O-])ccc1Cl)c1ccco1 (stereo not drawn) | -18.5 | 33.4 |
| COc1cccc(S(=O)(=O)N2CCCCN3[C@H](C2)[C@H](c2ccc(C#CC(C)C)cc2)[C@@H]3CO)c1 | -29.1 | 0.063 |
| COc1cccc(S(=O)(=O)N2CCCCN3[C@H](CO)[C@@H](c4ccc(C#CC(C)C)cc4)[C@H]3C2)c1 | -92.8 | 7.36 |
| CO[C@@H]1CN(C)C(=O)c2cc(NC(=O)C3CCCC3)ccc2OC[C@@H](C)N(C(=O)Nc2ccc(C(F)(F)F)cc2)C[C@H]1C | -51 | 82.6 |
| C[C@@H]1CCCCO[C@@H](CN(C)C)[C@H](C)CN([C@H](C)CO)C(=O)c2cc(NC(=O)Nc3cccc4ccccc34)ccc2O1 | 5.53 | 13.8 |
| CC1(C(=O)NS(=O)(=O)c2cccc(F)c2)CCN1C(=O)C1(c2ccc(Cl)cc2)CCC1 (stereo not drawn) | -18.6 | 101 |
| CC(C)Cc1nnc(NS(=O)(=O)c2ccccc2)s1 | -32.6 | -5.12 |
| COc1ccc(-c2ccccc2)cc1NC(=O)c1ccncc1 | -9.8 | 5.37 |
| CCN(CC(=O)Nc1ccccc1OC)CC(=O)Nc1c(Cl)ccc(C)c1Cl | -26.6 | 6.83 |
| O=C(Nc1ccn(Cc2ccc(Cl)cc2)n1)c1ccccc1 | -7.6 | -4.68 |
| O=C1CC[C@@H](CN(Cc2ccccc2)Cc2cn[nH]c2-c2cc3ccccc3o2)N1 | -93.5 | -22.7 |
| CC1=Nc2cc(C(=O)NCC3CCCO3)ccc2Sc2ccc(Br)cc21 (stereo not drawn) | -55.4 | -13.4 |
| O=C(Nc1ccc(Cl)cn1)c1cc2c(s1)-c1ccccc1OC2 | -5.82 | -3.75 |
| O=C(CCC(=O)N1CCN(c2ccc(F)cc2)CC1)c1ccc(F)cc1 | -3.71 | -8.05 |
| COc1ccc(C(=O)N(c2ccccc2)c2nccc3ccccc23)cc1OC | -30.2 | 10.3 |
| Cc1ccc(CCN2C(=O)c3ccccc3C2C(=O)NCc2cccnc2)cc1 (stereo not drawn) | 6.22 | 33.7 |
| CC1(C(=O)Nc2ccc3c(c2)OCCO3)CSCC(=O)N1CCOc1ccccc1 (stereo not drawn) | -6.58 | 5.03 |

| Structure (SMILES) | activity change [1] [%] | activity change [2] [%] |
| --- | --- | --- |
| COc1ccc(C2CC(c3ccc(Br)cc3)=NN2C(=O)CN2CCCC2)cc1 (stereo not drawn) | 2.17 | 28.8 |
| CN(C)C(=O)C1C2NC(=S)N(c3cccc(Cl)c3)C1(C)Oc1ccc(Cl)cc12 (stereo not drawn) | -17.5 | 1.75 |
| O=C(O)c1ccccc1NC(=O)C(c1ccccc1)c1ccccc1 | -26.5 | 8.05 |
| O=C(O)c1ccc(COc2ccc3ccccc3c2)o1 | -28.4 | 0.92 |
| S=c1[nH]c2cc(Cl)ccc2s1 | -54.3 | -24.5 |
| Nc1ccc(C(=O)OCCc2ccccc2)cc1 | -21.4 | -9.11 |
| CSc1cccc(NC(=O)CSc2nc3ccccc3o2)c1 | -77 | 23.1 |
| Cc1ccc(-c2csc(NC(=O)CCNC(=O)c3ccco3)n2)cc1 | -94 | 16.8 |
| O=C(Cc1cccc(NC(=O)C2CCCN(C(=O)CCc3ccccc3)C2)c1)Nc1cccc(C(=O)N2CCCCC2)c1 (stereo not drawn) | -24.4 | 9.69 |
| Cn1c(SCC(=O)Nc2ccccc2-c2ccccc2)nnc1-c1ccco1 | -19.5 | -8.01 |
| CNC(=O)c1sc(-c2ccccn2)nc1C | -3.82 | 21.6 |
| C[C@@H]1CCCCO[C@@H](CN(C)C(=O)CCCN(C)C)[C@H](C)CN([C@@H](C)CO)C(=O)c2cc(NC(=O)Nc3cccc4ccccc34)ccc2O1 | -42.5 | 18.2 |
| O=C(Nc1ccccc1)N1C[C@@H]2[C@H](c3ccccc31)[C@@H](CO)N2C(=O)Cc1ccccn1 | -38.9 | 72.5 |
| COc1ccc2sc(N3C(=O)CC(Cc4cccc(C)c4)C3=O)nc2c1 (stereo not drawn) | -78.9 | -19.9 |
| CC(C)(C)CC(=O)Nc1ccccc1N1CCN(c2ccccc2)CC1 | -27.6 | 28.9 |
| O=S(=O)(NCC1CCCO1)c1ccc(-c2ccc(Cl)cc2)cc1 (stereo not drawn) | -64.3 | -37.4 |
| CC(=O)Nc1ccc(Nc2nc(C)c([N+](=O)[O-])c(N(C)c3ccccc3)n2)cc1 | -64.4 | -18.9 |
| N#Cc1c(Cl)cccc1Oc1ccc(S(=O)(=O)Nc2ccccc2)cc1 | -97.6 | -57.4 |
| Cc1[nH]nc2c1C(c1ccc(Br)cc1)N(Cc1ccccc1)C2=O (stereo not drawn) | -79.2 | -38.1 |
| Cn1c(=O)c2c(-c3ccccc3)n(-c3cc([N+](=O)[O-])ccc3N)cc2n(C)c1=O | -6.53 | -20.5 |
| COc1ccccc1NS(=O)(=O)c1cc(NC(=O)CNC(=O)c2ccccc2)ccc1C | -70 | -16.4 |

Already shown: an excerpt of the list.

| Structure (SMILES) | activity change [1] [%] | activity change [2] [%] |
| --- | --- | --- |
| CSc1cccc(NC(=O)CSc2nc3ccccc3o2)c1 | -77 | 23.1 |
| Cc1ccc(-c2csc(NC(=O)CCNC(=O)c3ccco3)n2)cc1 | -94 | 16.8 |
| O=C(Cc1cccc(NC(=O)C2CCCN(C(=O)CCc3ccccc3)C2)c1)Nc1cccc(C(=O)N2CCCCC2)c1 (stereo not drawn) | -24.4 | 9.69 |
| Cn1c(SCC(=O)Nc2ccccc2-c2ccccc2)nnc1-c1ccco1 | -19.5 | -8.01 |
| CNC(=O)c1sc(-c2ccccn2)nc1C | -3.82 | 21.6 |
| C[C@@H]1CCCCO[C@@H](CN(C)C(=O)CCCN(C)C)[C@H](C)CN([C@@H](C)CO)C(=O)c2cc(NC(=O)Nc3cccc4ccccc34)ccc2O1 | -42.5 | 18.2 |
